Experimental data published in patent US11156615B2 (priority 2015, dated 2021).

What was measured:
[1] = Glucose-dependent fluorescence emission intensity spectra of conjugates (Nanodrop3300); format: biochemical; conditions: Nanodrop, room temperature
Source text: Semi-synthetic FRSs were engineered by site-specifically attaching thiol-reactive, environmentally sensitive fluorophores that respond to ligand-mediated conformational changes. Identification of FRS candidates that are useful for sensing applications comprises three steps: • 1. Cysteine scan. Mutant glucose-binding proteins containing single cysteines are constructed for site-specific attachment of thiol-reactive fluorophores. […] Candidate positions fall into three classes: endosteric, replacing a residue that contacts the ligand directly; peristeric, located at the rim of the binding site; allosteric (Marvin et al. 1997 Proc Natl Acad Sci USA, 94, 4366-71; Marvin 1998 J Am Chem Soc, 120, 7-11), located outside the binding site at sites that undergo local structural changes in concert with the hinge-bending motion. • 2. Fluorophore screening. Thiol-reactive, environmentally sensitive fluorophores are attached to each cysteine mutant prepared in step 1. • 3. Evaluation of the glucose-mediated change of all the fluorescent conjugates prepared in step 2. Responses to ligand binding in which there is both a change in fluorescence emission intensity and spectral shape was essential for chemometric applications, because such changes enable ratiometric measurements. Changes in spectral shape typically are accompanied by a shift in the wavelength of the emission intensity maxima. Three classes of fluorescent responses are possible: • i. No response. • ii. Monochromatic response (emission intensity increases or decreases without a change in spectral shape) • iii.

[2] = Analysis of emission spectra components: singular value decomposition and Gaussian fits of S1/S2 electronic transitions; conditions: for Gaussians Fraction f(S1) Sat: glucose-saturated
[3] = Acrylodan conjugate of ttGGBP.17C mutant
[4] = Badan conjugate of ttGGBP.17C mutant

Row | Molecule | Gaussians Peak S1 [2, 3] [nm] | Gaussians Peak S2 [2, 3] [nm] | Gaussians Fraction f(S1) Apo [2, 3] | Emission wavelength λ1 (optimal ratiometry wavelength) ([1]; Acrylodan conjugate) [nm] | Emission wavelength λ2 (optimal ratiometry wavelength) ([1]; Acrylodan conjugate) [nm] | SVD component fraction C1 [2, 3] | SVD component fraction C2 [2, 3] | Gaussians Fraction f(S1) Sat [2, 3] | further results
1 | ttGGBP17C.6: affinity-tuning mutant, 17C background, SEQ ID NO: 71 (protein, ttGGBP17C.6 (affinity-tuning mutant, 17C background (Table 6) with signal peptide replaced with M and GGSHHHHHH at C-terminus)) MKQLNIGVAIYKFDETCMTGVRNAMTAEAQGKAKLNMVDSQNSQPTQNDQVDLFITKKMNALAINPVDRTAAGTIIDKAKQANIPVVFFNREPLPEDMKKWDKVYYVGAKAEQSGILQGQIMADYWKAHPEADKNHDGVMQYVMLMGQPGHQDAILRTQYSIQTVKDAGIKVQELAKDYANWDRVTAHDKMAAWLSSFGDKIEAVFANNDDMALGAIEALKSAGYFTGNKYIPVVGVDATAPGIQAIKDGTLLGTVLNDAKNQAKATFNIAYELAQGITPTKDNIGYDITDGKYVWIPYKKITKDNISDAEQGGSHHHHHH | 511 | 448 | 0.72 | – | – | – | – | – | Emission wavelength λ1 (optimal ratiometry wavelength) ([1]; Badan conjugate): 467 nm; Emission wavelength λ2 (optimal ratiometry wavelength) ([1]; Badan conjugate): 525 nm; Gaussians Peak S1 [2, 4]: 525 nm; Gaussians Peak S2 [2, 4]: 473 nm; SVD component fraction C1 [2, 4]: 0.90; SVD component fraction C2 [2, 4]: 0.09; Gaussians Fraction f(S1) Apo [2, 4]: 0.39; Gaussians Fraction f(S1) Sat [2, 4]: 0.15
2 | ttGGBP182C.6: affinity-tuning mutant, 182C background, SEQ ID NO: 100 (protein, ttGGBP182C.6 (affinity-tuning mutant, 182C background (Table 6) with signal peptide replaced with M and GGSHHHHHH at C-terminus)) MKQLNIGVAIYKFDDNFMTGVRNAMTAEAQGKAKLNMVDSQNSQPTQNDQVDLFITKKMNALAINPVDRTAAGTIIDKAKQANIPVVFFNREPLPEDMKKWDKVYYVGAKAEQSGILQGQIMADYWKAHPEADKNHDGVMQYVMLMGQPGHQDAILRTQYSIQTVKDAGIKVQELAKDYANCDRVTAHDKMAAWLSSFGDKIEAVFANNDAMALGAIEALKSAGYFTGNKYIPVVGVDATAPGIQAIKDGTLLGTVLNDAKNQAKATFNIAYELAQGITPTKDNIGYDITDGKYVWIPYKKITKDNISDAEQGGSHHHHHH | – | – | – | 472 | 530 | – | – | – | –
3 | ttGGBP17C.11: affinity-tuning mutant, 17C background, SEQ ID NO: 76 (protein, ttGGBP17C.11 (affinity-tuning mutant, 17C background (Table 6) with signal peptide replaced with M and GGSHHHHHH at C-terminus)) MKQLNIGVAIYKFDDTCMTGVRNAMTAEAQGKAKLNMVDSQNSQPTQNDQVDLFITKKMNALAINPVDRTAAGTIIDKAKQANIPVVFFNREPLPEDMKKWDKVYYVGAKAEQSGILQGQIMADYWKAHPEADKNHDGVMQYVMLMGQPGHQDAILRTQYSIQTVKDAGIKVQELAKDYANWDRVTAHDKMAAWLSSFGDKIEAVFANNDDMALGAIEALKSAGYFTGNKYIPVVGVDAAAPGIQAIKDGTLLGTVLNDAKNQAKATFNIAYELAQGITPTKDNIGYDITDGKYVWIPYKKITKDNISDAEQGGSHHHHHH | 541 | 487 | 0.35 | 487 | 500 | 0.95 | 0.03 | 0.25 | –
4 | ttGGBP182C.9: affinity-tuning mutant, 182C background, SEQ ID NO: 103 (protein, ttGGBP182C.9 (affinity-tuning mutant, 182C background (Table 6) with signal peptide replaced with M and GGSHHHHHH at C-terminus)) MKQLNIGVAIYKFDNTFMTGVRNAMTAEAQGKAKLNMVDSQNSQPTQNDQVDLFITKKMNALAINPVDRTAAGTIIDKAKQANIPVVFFNREPLPEDMKKWDKVYYVGAKAEQSGILQGQIMADYWKAHPEADKNHDGVMQYVMLMGQPGHQDAILRTQYSIQTVKDAGIKVQELAKDYANCDRVTAHDKMAAWLSSFGDKIEAVFANNDDMALGAIEALKSAGYFTGNKYIPVVGVDATAPGIQAIKDGTLLGTVLNDAKNQAKATFNIAYELAQGITPTKDNIGYDITDGKYVWIPYKKITKDNISDAEQGGSHHHHHH | – | – | – | 475 | 540 | – | – | – | –
5 | ttGGBP182C.8: affinity-tuning mutant, 182C background, SEQ ID NO: 102 (protein, ttGGBP182C.8 (affinity-tuning mutant, 182C background (Table 6) with signal peptide replaced with M and GGSHHHHHH at C-terminus)) MKQLNIGVAIYKFDDTFMTGVRNAMTAEAQGKAKLNMVDSQNSQPTQNDQVDLFITKKMNALAINPVDRTAAGTIIDKAKQANIPVVFFNKEPLPEDMKKWDKVYYVGAKAEQSGILQGQIMADYWKAHPEADKNHDGVMQYVMLMGKPGHQDAILRTQYSIQTVKDAGIKVQELAKDYANCDRVTAHDKMAAWLSSFGDKIEAVFANNDDMALGAIEALKSAGYFTGNKYIPVVGVDATAPGIQAIKDGTLLGTVLNDAKNQAKATFNIAYELAQGITPTKDNIGYDITDGKYVWIPYKKITKDNISDAEQGGSHHHHHH | – | – | – | 475 | 545 | – | – | – | –
6 | ttGGBP17C.8: affinity-tuning mutant, 17C background, SEQ ID NO: 73 (protein, ttGGBP17C.8 (affinity-tuning mutant, 17C background (Table 6) with signal peptide replaced with M and GGSHHHHHH at C-terminus)) MKQLNIGVAIYKFDDNCMTGVRNAMTAEAQGKAKLNMVDSQNSQPTQNDQVDLFITKKMNALAINPVDRTAAGTIIDKAKQANIPVVFFNREPLPEDMKKWDKVYYVGAKAEQSGILQGQIMADYWKAHPEADKNHDGVMQYVMLMGQPGHQDAILRTQYSIQTVKDAGIKVQELAKDYANWDRVTAHDKMAAWLSSFGDKIEAVFANNDDMALGAIEALKSAGYFTGNKYIPVVGVDATAPGIQAIKDGTLLGTVLNDAKNQAKATFNIAYELAQGITPTKDNIGYDITDGKYVWIPYKKITKDNISDAEQGGSHHHHHH | 533 | 496 | 0.30 | 487 | 529 | 0.93 | 0.07 | 0.00 | –
